# According to PMC3102665, “A Sir2-Like Protein Participates in Mycobacterial NHEJ” (PLoS ONE, 2011):
# Biological target: T1, GST-MtuSir2 fusion protein (M. tuberculosis) (UniProt P9WGG3)
# T1 sequence: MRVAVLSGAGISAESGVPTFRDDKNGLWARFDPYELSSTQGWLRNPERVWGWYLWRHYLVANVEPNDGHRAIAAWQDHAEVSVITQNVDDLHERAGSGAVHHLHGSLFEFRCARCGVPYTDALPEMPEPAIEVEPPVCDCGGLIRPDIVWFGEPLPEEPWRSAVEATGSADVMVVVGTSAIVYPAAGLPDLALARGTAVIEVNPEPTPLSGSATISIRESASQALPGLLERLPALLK
# Experiment: pull-down; both purified
substance,measurement,value
His-MtuKu protein (M. tuberculosis),binding,binds

# These are yes or no findings as the source states them, for the method shown. Binding can be weak; no strength is given. Tags and fused reporters may be left off the sequences shown.
